Reference: publication PMC8126939, “The TBC1D31/praja2 complex controls primary ciliogenesis through PKA‐directed OFD1 ubiquitylation” (The EMBO Journal, 2021)
Results are given in words; binding and its absence hold for the method and conditions named. Binding seen in cells or lysates may run through a third protein. Some results given as binding are weak or reduced against the parent protein; the word gives no strength. For some of these results: Sequences can lack the tags named with a protein.

T1: flag-OFD1 (human) (UniProt O75665)
T1 sequence: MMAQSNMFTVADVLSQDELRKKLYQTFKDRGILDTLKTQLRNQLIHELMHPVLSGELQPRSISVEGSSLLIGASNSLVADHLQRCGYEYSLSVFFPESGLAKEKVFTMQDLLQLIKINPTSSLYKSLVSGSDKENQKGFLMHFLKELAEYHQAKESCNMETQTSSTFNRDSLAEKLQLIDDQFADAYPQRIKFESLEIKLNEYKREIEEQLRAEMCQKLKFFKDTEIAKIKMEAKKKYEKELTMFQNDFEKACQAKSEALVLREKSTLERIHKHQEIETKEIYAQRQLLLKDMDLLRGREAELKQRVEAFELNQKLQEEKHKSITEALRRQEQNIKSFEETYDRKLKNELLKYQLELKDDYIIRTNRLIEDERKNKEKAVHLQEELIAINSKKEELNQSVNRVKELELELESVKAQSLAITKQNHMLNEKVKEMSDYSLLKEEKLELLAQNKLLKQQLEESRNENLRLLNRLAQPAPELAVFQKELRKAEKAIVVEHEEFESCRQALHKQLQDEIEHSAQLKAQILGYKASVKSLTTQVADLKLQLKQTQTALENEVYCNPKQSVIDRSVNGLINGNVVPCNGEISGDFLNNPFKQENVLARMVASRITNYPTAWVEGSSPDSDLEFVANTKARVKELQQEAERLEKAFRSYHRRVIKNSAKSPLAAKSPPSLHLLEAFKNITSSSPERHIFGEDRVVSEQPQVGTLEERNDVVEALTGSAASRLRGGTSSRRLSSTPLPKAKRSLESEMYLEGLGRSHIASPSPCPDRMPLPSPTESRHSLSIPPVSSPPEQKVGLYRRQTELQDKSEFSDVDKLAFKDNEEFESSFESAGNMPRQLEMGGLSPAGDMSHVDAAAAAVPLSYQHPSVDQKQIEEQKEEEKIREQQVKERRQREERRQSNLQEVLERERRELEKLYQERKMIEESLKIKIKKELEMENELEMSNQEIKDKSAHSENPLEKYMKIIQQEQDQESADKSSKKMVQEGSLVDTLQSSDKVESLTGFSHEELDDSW

T2: endogenous TBC1D31 (mouse brain) (mouse (endogenous in mouse brain)) (UniProt Q6NXY1)
T2 sequence: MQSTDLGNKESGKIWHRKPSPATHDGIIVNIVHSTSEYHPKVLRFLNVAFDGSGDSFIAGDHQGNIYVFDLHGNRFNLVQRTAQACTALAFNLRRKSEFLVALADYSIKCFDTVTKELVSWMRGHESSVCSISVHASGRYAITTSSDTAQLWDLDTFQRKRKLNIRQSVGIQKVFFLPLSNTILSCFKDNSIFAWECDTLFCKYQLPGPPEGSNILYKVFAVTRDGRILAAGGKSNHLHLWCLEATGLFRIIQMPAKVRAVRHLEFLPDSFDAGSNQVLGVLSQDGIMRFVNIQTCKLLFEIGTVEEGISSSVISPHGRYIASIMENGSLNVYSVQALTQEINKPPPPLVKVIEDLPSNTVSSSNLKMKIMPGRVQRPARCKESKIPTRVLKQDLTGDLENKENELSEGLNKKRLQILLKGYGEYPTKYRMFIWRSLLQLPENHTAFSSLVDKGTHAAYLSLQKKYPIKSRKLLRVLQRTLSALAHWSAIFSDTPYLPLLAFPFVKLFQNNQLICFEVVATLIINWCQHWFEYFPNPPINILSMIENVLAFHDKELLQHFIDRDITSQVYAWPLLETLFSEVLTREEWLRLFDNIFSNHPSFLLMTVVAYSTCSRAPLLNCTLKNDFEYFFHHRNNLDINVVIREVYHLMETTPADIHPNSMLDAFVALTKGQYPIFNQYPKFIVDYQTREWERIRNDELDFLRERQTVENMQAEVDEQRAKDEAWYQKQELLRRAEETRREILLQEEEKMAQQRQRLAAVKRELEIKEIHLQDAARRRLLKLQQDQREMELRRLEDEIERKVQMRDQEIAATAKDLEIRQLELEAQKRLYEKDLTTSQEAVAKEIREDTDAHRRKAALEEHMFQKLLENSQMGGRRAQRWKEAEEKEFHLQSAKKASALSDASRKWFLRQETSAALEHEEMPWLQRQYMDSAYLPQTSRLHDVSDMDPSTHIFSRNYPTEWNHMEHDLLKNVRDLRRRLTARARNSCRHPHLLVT

T3: endogenous TBC1D31 (cell lysates) (not stated (endogenous in cells that the legend does not name)) (UniProt Q96DN5)
T3 sequence: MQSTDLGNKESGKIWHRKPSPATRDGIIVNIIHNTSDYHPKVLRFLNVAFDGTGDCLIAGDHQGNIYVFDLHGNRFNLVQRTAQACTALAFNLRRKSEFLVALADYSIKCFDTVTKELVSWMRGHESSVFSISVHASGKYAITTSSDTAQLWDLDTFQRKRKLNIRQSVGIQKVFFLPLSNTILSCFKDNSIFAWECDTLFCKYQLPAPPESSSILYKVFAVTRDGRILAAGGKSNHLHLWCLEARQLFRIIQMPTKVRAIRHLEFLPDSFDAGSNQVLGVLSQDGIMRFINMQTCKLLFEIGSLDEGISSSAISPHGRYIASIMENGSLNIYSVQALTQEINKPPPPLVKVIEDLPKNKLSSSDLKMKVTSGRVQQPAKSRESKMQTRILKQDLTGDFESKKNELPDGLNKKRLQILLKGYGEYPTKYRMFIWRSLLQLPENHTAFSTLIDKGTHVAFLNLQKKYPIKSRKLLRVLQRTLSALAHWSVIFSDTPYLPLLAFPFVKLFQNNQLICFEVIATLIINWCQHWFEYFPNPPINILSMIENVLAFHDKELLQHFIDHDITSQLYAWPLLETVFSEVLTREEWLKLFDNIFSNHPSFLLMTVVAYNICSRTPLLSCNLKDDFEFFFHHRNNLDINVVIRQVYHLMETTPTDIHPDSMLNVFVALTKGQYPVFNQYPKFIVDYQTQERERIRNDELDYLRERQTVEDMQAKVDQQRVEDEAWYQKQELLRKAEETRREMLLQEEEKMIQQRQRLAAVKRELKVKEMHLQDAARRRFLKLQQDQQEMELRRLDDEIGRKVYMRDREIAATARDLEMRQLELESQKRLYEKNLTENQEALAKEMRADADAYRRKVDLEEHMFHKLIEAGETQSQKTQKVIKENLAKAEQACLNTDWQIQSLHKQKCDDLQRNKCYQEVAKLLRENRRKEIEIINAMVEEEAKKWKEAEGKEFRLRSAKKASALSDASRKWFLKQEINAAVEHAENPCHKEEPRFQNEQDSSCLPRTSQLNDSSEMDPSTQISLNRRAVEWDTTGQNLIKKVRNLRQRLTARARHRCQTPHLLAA


Legend:
[1] = molecular target: T1, flag-OFD1 (human); assay: co-IP; lysates of transfected HEK293 cells (150 mM NaCl, 50 mM Tris-HCl pH 7.5, 1 mM EDTA, 0.5% NP40), overnight with anti-flag antibody or control IgG, immunoblot
[2] = molecular target: T2, endogenous TBC1D31 (mouse brain) (mouse (endogenous in mouse brain)); assay: co-IP; total lysates from mouse brain immunoprecipitated with anti-TBC1D31 antibodies or control IgG, immunoblot
[3] = molecular target: T3, endogenous TBC1D31 (cell lysates) (not stated (endogenous in cells that the legend does not name)); assay: co-IP; endogenous proteins from cell lysates, immunoprecipitated with antibodies raised against residues 239-358 of human TBC1D31

binding [2]	other results	Binder
	binding [1]: binds	endogenous praja2 (HEK293) (protein, UniProt O43164 1-708) MSQYTEKEPAAMDQESGKAVWPKPAGGYQTITGRRYGRRHAYVSFKPCMTRHERSLGRAGDDYEVLELDDVPKENSSGSSPLDQVDSSLPSEPIFEKSETEIPTCGSALNQTTESSQSFVAVHHSEEGRDTLGSSTNLHNHSEGEYIPGACSASSVQNGIALVHTDSYDPDGKHGEDNDHLQLSAEVVEGSRYQESLGNTVFELENREAEAYTGLSPPVPSFNCEVRDEFEELDSVPLVKSSAGDTEFVHQNSQEIQRSSQDEMVSTKQQNNTSQERQTEHSPEDAACGPGHICSEQNTNDREKNHGSSPEQVVRPKVRKLISSSQVDQETGFNRHEAKQRSVQRWREALEVEESGSDDLLIKCEEYDGEHDCMFLDPPYSRVITQRETENNQMTSESGATAGRQEVDNTFWNGCGDYYQLYDKDEDSSECSDGEWSASLPHRFSGTEKDQSSSDESWETLPGKDENEPELQSDSSGPEEENQELSLQEGEQTSLEEGEIPWLQYNEVNESSSDEGNEPANEFAQPAFMLDGNNNLEDDSSVSEDLDVDWSLFDGFADGLGVAEAISYVDPQFLTYMALEERLAQAMETALAHLESLAVDVEVANPPASKESIDGLPETLVLEDHTAIGQEQCCPICCSEYIKDDIATELPCHHFFHKPCVSIWLQKSGTCPVCRRHFPPAVIEASAAPSSEPDPDAPPSNDSIAEAP
binds		endogenous praja2 (mouse brain) (protein, UniProt Q80U04 1-707) MSQYTEKEPSVMDQESSKAAWPKPAGGYQTITGRRYGRRHAYVSFKPCMTRHERSLGRAGDDYEVLELDDVPKENTSGSSSLDQVHPALPNEPTVEKSETEISTCGPALNQSTESSPSIATVCHSEEVRETLESNTNLHNRTETEHTPAVCNVSSVQNGIMLVHTDSYDPDSKHDENGSLQLGAEAVEGGRHQKGLGRAVFELENGEAEIYADLSPSVPSLNGEISEAFEELDSAPLEKSSTADAELVHQNGQEFQRSSEDGVVRKRRQDDTDQGRQTENSTEDADCAPGHVEQNTSDRANHHGSSPEQVVRPKVRKVISSSQVDQEIGFNRHEAKQRSVQRWREALEVEECSSDDPIIKCDDYDGDHDCMFLTPTYSRVTQRETERNRVTSENGATASGRQESRDNAFWNACGEYYQLFDKDEDSSECSDGEWSASLPHRFSGTEKDQSSSDDSWETLPGKDENDPELQSDSSGPEEENQELSLQEGEQTSLEEGEIPWLQYNEVNESSSDEGNEPANEFAQPEAFMLDGNNNLEDDSSVSEDLDVDWSLFDGFADGLGVAEAISYVDPQFLTYMALEERLAQAMETALAHLESLAVDVEVANPPASKESIDGLPETLVLEDHTAIGQEQCCPICCSEYIKDDIATELPCHHFFHKPCVSIWLQKSGTCPVCRRHFPPAVIDASAAASSDPDPDASPANDNAEEAP
binds		endogenous OFD1 (mouse brain) (protein, UniProt Q80Z25 1-1017) MAQSNMPHKSDVLSQDELRKKLYQTFKDRGVLDTLQTQLRNQLIHELMHPVLSGEVKPPSISVEGSALLIGASNSLVADHLQRCGYEYSLSVFFPESGLAKEKIFTMQDLLQLIRINPSSSLYKSLISGFDKENKKGFLMSFLKELAEYYQAKESCDAETQTSTTFPSQVSLAEKFQLIDAQFADGFPHRSKLESLETKLNEYKKEVQHQLQVEMCHKLKYFREAEITKVKMEERRKYEKELAEFQNEFERTCQAKNEALISQEKNSLERIKKHREMESKEIYAQRQLLLNDIALLRGREAELKERIETFELTQKLQEEKIKSEAEALERREQNLKNIEDTYDQKLKTELLKYQLELKDDYITRTNKLLEEERKNKEKTIHLQEELTVINSKKEELSKSVKHMKEVELELESVKAQFLAISKQNHLLNEKVREMSDYSQLKEEKVELQAQNKLLKLQLEETRNENLRLLDRITQPPPELVIFQKELQKTEKAMELEHKDFETHRQALEKQLQSEIENSAQLRTQIAEYDASVKRLTVQVAELKSQLKQTQIALENEVYRNPKHSLIHSLSGLLLSGKMAPHSEDKSGDFLNVPLEQNKVIAGAVMSRVPPYVNTATEASSPESDFEFIASSTKAKVRELEQEAERLEKAFRTYYQRATQNPSTSPQPAKSPPSVNSVAALRSIASSSMDRPVSAEDRVVSEQPLGDMLKEEMSDMSKAFMGSVVSRPRRTSSSTRLSSTPHPKSRRSLDNEMYLEGLGRLHMTSSSPLLDRVSASPAASPSPCPERTAQASPVPSRHSFSGLPEQNACLYQRQTETQDKSELSNVDKQSLKDEKFEPPFRWNKTEQFEAEGLHPAGDMPGIDFAVATQSSRLISYDYPSAVQSQTGEQDEQELWELHMKERRQREEQRHNERQEALERERRELGKLEQERRMIEESLKMEMEEELEKSVQDQKDKSAHCENTLEKYMKIIQQRQEESNADKSSKKSGKECSLVDMMMPSDKDESSPGFSHEEPDDMW
	binding [3]: binds	endogenous praja2 (cell lysates, Fig 1E) (protein, UniProt O43164 1-708) MSQYTEKEPAAMDQESGKAVWPKPAGGYQTITGRRYGRRHAYVSFKPCMTRHERSLGRAGDDYEVLELDDVPKENSSGSSPLDQVDSSLPSEPIFEKSETEIPTCGSALNQTTESSQSFVAVHHSEEGRDTLGSSTNLHNHSEGEYIPGACSASSVQNGIALVHTDSYDPDGKHGEDNDHLQLSAEVVEGSRYQESLGNTVFELENREAEAYTGLSPPVPSFNCEVRDEFEELDSVPLVKSSAGDTEFVHQNSQEIQRSSQDEMVSTKQQNNTSQERQTEHSPEDAACGPGHICSEQNTNDREKNHGSSPEQVVRPKVRKLISSSQVDQETGFNRHEAKQRSVQRWREALEVEESGSDDLLIKCEEYDGEHDCMFLDPPYSRVITQRETENNQMTSESGATAGRQEVDNTFWNGCGDYYQLYDKDEDSSECSDGEWSASLPHRFSGTEKDQSSSDESWETLPGKDENEPELQSDSSGPEEENQELSLQEGEQTSLEEGEIPWLQYNEVNESSSDEGNEPANEFAQPAFMLDGNNNLEDDSSVSEDLDVDWSLFDGFADGLGVAEAISYVDPQFLTYMALEERLAQAMETALAHLESLAVDVEVANPPASKESIDGLPETLVLEDHTAIGQEQCCPICCSEYIKDDIATELPCHHFFHKPCVSIWLQKSGTCPVCRRHFPPAVIEASAAPSSEPDPDAPPSNDSIAEAP
